Experimental data reported in PubChem BioAssay AID504467 (National Center for Advancing Translational Sciences (NCATS), 2011).
Screen size: about 330,000 compounds; about 7,700 (2.3%) were called active. The shares of active, inactive and inconclusive entries below differ from those in the screen. Calls come from the whole dose curve; as a rule, active = well fitted inhibition curve with a large enough effect; inconclusive = small, poorly fitted or top-dose-only effect, or effect the other way; inactive = flat fitted curve, though single readings scatter. Where the call is inconclusive, the potency comes from a doubtful curve fit.
% is set by controls: 0 for no effect and ±100 for the full control effect; potency is the fitted concentration of half-maximal effect.

Experiment: qHTS screen for small molecules that inhibit ELG1-dependent DNA repair in human embryonic kidney (HEK293T) cells expressing luciferase-tagged ELG1; note: nearly all actives have a fitted effect of over 55% in size
Settings: HEK293T ELG1-luciferase reporter, luminescence, 16 h, DNA damage induced by 5-fluorouridine; activity change, negative = inhibition: at 46.1 µM (top of the series)
Outline: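 Overnight (16 hr) co-exposure of 2,000 cells/well to 5-fluorouridine and compound at 37 °C preceded detection. Luciferase was quantified via ONE-Glo luminescence; loss of signal denotes inhibition.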
For `C=CCOc1ccc2c(OC)c3ccoc3nc2c1OC`, the Potency was inconclusive: 13 µM [activator, partial curve]. For `Cc1ccc(CN2CCN(Cc3cc4ccccc4o3)CC2CCO)cc1` (stereo not given), the “activity change, negative = inhibition” value was inactive: -12.2%. For `Cc1ccc2oc(C(=O)Nc3cc(C)on3)c(C)c2c1`, the Potency was inconclusive: 0.92 µM [activator, full curve]. In the case of `CC(C)CSc1nc2c(c(=O)[nH]c(=O)n2C)n1CC(O)COc1cccc2ccccc12` (stereo not given), the Potency is reported as inconclusive: 20 µM [inhibitor, partial curve, poor fit]. For `COCCOC1CCN(C(=O)c2ccc(OC)c(OC3CCN(C(C)C)CC3)c2)CC1`, the Potency was inconclusive: 32.6 µM [activator, partial curve, poor fit]. With `Cc1cccc(NC(=O)C2C3CCCCC32)c1` (stereo not given) the Potency was inconclusive: 14.6 µM [activator, partial curve]. In the case of `O=C(CCS(=O)(=O)c1ccc(Br)cc1)Nc1ccc2c(c1)OCO2`, the Potency is reported as inconclusive: 13 µM [activator, partial curve, poor fit]. With `COc1cc(C(=O)N2CCN(c3ccccc3Cl)CC2)ccc1OCC(=O)N1CCOCC1` the Potency was inconclusive: 16.4 µM [inhibitor, partial curve, poor fit]. For `Cc1ccc(-n2ncc3c2CCCC3NC(=O)c2ccccc2N2CCOCC2)cc1C` (stereo not given), the “activity change, negative = inhibition” value was inactive: -8.58%. For `CCOC(=O)CNc1ncnc2nc[nH]c12`, the “activity change, negative = inhibition” value was inactive: 3.74%. In the case of `CCSC1=C(C#N)C2(CCCCC2)C(C#N)=C(N)N1`, the “activity change, negative = inhibition” value is reported as inactive: 0.905%. For `CCN1C(=O)c2cccc3c(S(=O)(=O)NCc4ccccc4)ccc1c23`, the Potency was inconclusive: 20.6 µM [activator, single point]. With `CC(=O)N1CCN(Cc2nc(-c3cccc(Cl)c3)no2)CC1` the Potency was inconclusive: 16.4 µM [activator, partial curve, poor fit]. For `CC(NC(=S)Nc1ccc(OC(F)F)cc1OC(F)F)C(C)(C)C` (stereo not given), the “activity change, negative = inhibition” value was inactive: 0.872%. For `C/C=C/C(=O)N[C@@H]1c2ccccc2CC[C@@H]1OCc1ccccc1`, the “activity change, negative = inhibition” value was inactive: -0.695%. With `CCC(C)c1ccccc1NC(=O)CN(C)CCOc1ccc(Cl)cc1` (stereo not given) the “activity change, negative = inhibition” value was inactive: -25.2%. For `COc1ccc(OCc2cc(C(=O)O)c(C)o2)cc1`, the Potency was inconclusive: 3.66 µM [activator, partial curve, poor fit]. With `Cc1c(NC(=O)C(C)OC(=O)c2c3c(nc4ccccc24)CCC3)c(=O)n(-c2ccccc2)n1C` (stereo not given) the Potency was inconclusive: 14.6 µM [inhibitor, partial curve]. For `Cc1ccc(S(=O)(=O)CCSc2ccc(C(F)(F)F)cn2)cc1`, the Potency was inconclusive: 29.1 µM [inhibitor, single point]. In the case of `Cc1ccc(Sc2ncccc2COC(=O)NC(C)C)cc1`, the Potency is reported as inconclusive: 23.1 µM [activator, partial curve]. With `CC(C)CN(C(=O)COC(=O)c1ccc([N+](=O)[O-])s1)c1c(N)n(Cc2ccccc2)c(=O)[nH]c1=O` the “activity change, negative = inhibition” value was inactive: 6.42%. In the case of `Cn1cccc1C(=O)OCC(=O)Nc1ccc2[nH]c(=O)[nH]c2c1`, the Potency is reported as inconclusive: 14.6 µM [activator, partial curve, poor fit]. In the case of `Cn1cccc1/C=N/NC(=O)c1ccc(OC(F)(F)C(F)F)cc1`, the Potency is reported as inconclusive: 16.4 µM [activator, partial curve]. With `CCOC(=O)c1cnc(-c2ccccc2)nc1Oc1ccc(C)cc1` the Potency was inconclusive: 29.1 µM [inhibitor, single point]. In the case of `CC(=O)c1ccc(S(=O)(=O)Nc2c(C)nn(C)c2C)cc1`, the “activity change, negative = inhibition” value is reported as inactive: 2.08%. With `CC(=O)c1ccc(NC(=O)COc2ccccc2C(=O)Nc2ccccc2)cc1` the Potency was inconclusive: 29.1 µM [inhibitor, single point]. For `CCOC(=O)C1=NN(c2ccc(Cl)cc2)C(c2ccccc2)CC1=O` (stereo not given), the Potency was inconclusive: 29.1 µM [inhibitor, partial curve, poor fit]. With `O=C(Cc1cccc2ccccc12)Nc1ccc2oc(-c3ccccc3)nc2c1` the Potency was inconclusive: 20.6 µM [inhibitor, single point]. For `CCOc1ccc(NS(=O)(=O)c2cc(NC(=O)c3cccc(C)c3)ccc2Cl)cc1`, the Potency was inconclusive: 29.1 µM [inhibitor, single point]. In the case of `COC(=O)/C=C1\C(=O)N(c2nc3ccc(OC)cc3s2)C(=S)N1c1ccc(F)cc1`, the Potency is reported as inconclusive: 11.6 µM [activator, partial curve, poor fit]. In the case of `CCOC(=O)c1cnn(-c2ncnc3c2cnn3C)c1N`, the Potency is reported as inconclusive: 5.8 µM [activator, partial curve]. In the case of `COc1ccccc1NC(=O)c1cccs1`, the Potency is reported as inconclusive: 18.4 µM [activator, single point]. In the case of `O=C(N/N=C/c1ccoc1)c1ccccc1F`, the Potency is reported as inconclusive: 20.6 µM [activator, partial curve]. With `CCCCn1c(=O)[nH]c(=O)c2c1nc(-c1ccccc1OC(F)F)n2C` the “activity change, negative = inhibition” value was inactive: -25.5%. For `COc1cccc(OCc2nc3ccccc3[nH]2)c1`, the Potency was inconclusive: 4.11 µM [activator, full curve]. With `O=C(OCC(=O)N1CCN(C(=O)c2ccco2)CC1)c1ccccc1OCc1ccc(Cl)cc1` the Potency was inconclusive: 29.1 µM [inhibitor, single point]. For `Cc1ccc(-c2cc(-c3ccco3)c(C#N)c(=O)[nH]2)cc1`, the “activity change, negative = inhibition” value was inactive: 4.72%. With `CCOc1ncccc1C(=O)OCC(=O)NCc1cccs1` the “activity change, negative = inhibition” value was inactive: -17.6%. In the case of `COc1ccccc1N1CC(C)(C)C(=O)N(C(=O)c2c(F)cccc2Cl)C1=S`, the “activity change, negative = inhibition” value is reported as inactive: 5.52%. In the case of `Cc1cc(Br)ccc1NC(=S)NCCc1ccccc1`, the “activity change, negative = inhibition” value is reported as inactive: 18.1%. With `CCC(CC)COC(=O)C1=C(C)NC(=O)NC1c1ccc([N+](=O)[O-])cc1` (stereo not given) the Potency was inconclusive: 20.6 µM [inhibitor, single point]. For `COc1cc(S(=O)(=O)N2CCCCCC2)ccc1-n1cnnn1`, the “activity change, negative = inhibition” value was inactive: -0.528%. With `COc1ccccc1C(=O)NCCC(=O)Nc1ccc(S(=O)(=O)N2CC(C)CC(C)C2)cc1` (stereo not given) the Potency was inconclusive: 29.1 µM [inhibitor, single point]. For `O=C(COc1ccc(S(=O)(=O)NCc2ccccc2)cc1Cl)NCC1CCCO1` (stereo not given), the Potency was inconclusive: 18.4 µM [inhibitor, partial curve, poor fit]. For `CCC(C)N(C(=O)c1csnn1)C(C(=O)NCc1ccc(F)cc1)c1ccccc1` (stereo not given), the “activity change, negative = inhibition” value was inactive: 4.85%. In the case of `Cc1c(Cc2ccccc2)c(=O)oc2cc(OCC(=O)NCc3ccccn3)ccc12`, the Potency is reported as inconclusive: 11.6 µM [inhibitor, partial curve]. With `COc1ccccc1CCNC(=O)c1cccc(S(=O)(=O)NCc2ccccc2)c1` the “activity change, negative = inhibition” value was inactive: -24.5%. In the case of `O=C(c1cnn2c(C(F)(F)F)cc(-c3cccs3)nc12)N1CCCC1`, the “activity change, negative = inhibition” value is reported as inactive: -4.07%. For `Cc1ccc(C(=O)CCNc2ccc(Cl)cc2)o1`, the Potency was inconclusive: 20.6 µM [activator, single point]. With `CC(Cc1ccccc1)NC(=O)CSc1nc2nc3c(cc2c(=O)n1-c1ccccc1)COC(C)(C)C3` (stereo not given) the Potency was inconclusive: 29.1 µM [inhibitor, single point]. In the case of `Cc1cccc(OCCC(=O)N(C)CC(=O)Nc2cccc3ccccc23)c1`, the “activity change, negative = inhibition” value is reported as inactive: -18%. With `COc1ccc(/C=C2/C(=O)N(c3c(F)c(F)c(F)c(F)c3F)N=C2C)cc1` the Potency was inconclusive: 14.1 µM [activator, single point]. In the case of `Nc1cc(N)nc(SCC(=O)NCc2ccc3c(c2)OCO3)n1`, the “activity change, negative = inhibition” value is reported as inactive: -5.22%. For `O=C(O)c1cccc(COc2ccc3c(c2)CCC3)c1`, the Potency was inconclusive: 0.0291 µM [activator, full curve, poor fit]. For `COc1ccc(C2(O)CC3CCC(C2)N3c2nc(C)cc(C)c2C#N)cc1` (stereo not given), the Potency was inconclusive: 20.6 µM [inhibitor, single point]. With `CN(CC(=O)Nc1ccc(Cl)c(C(F)(F)F)c1)C(=O)c1cccc(N2C(=O)CCC2=O)c1` the Potency was inconclusive: 13 µM [inhibitor, single point]. For `O=C(NCc1ccccc1)c1ccc2c(=O)[nH]c3c(C(=O)NCC4CCCO4)sc(=S)n3c2c1` (stereo not given), the “activity change, negative = inhibition” value was inactive: -6.52%. With `O=C(Nc1nc(-c2ccc(Cl)cc2Cl)cs1)c1ccc(OCC2CCCO2)cc1` (stereo not given) the Potency was inconclusive: 14.6 µM [inhibitor, single point]. With `Cc1c(NC(=O)Nc2cccc([N+](=O)[O-])c2)c(=O)n(-c2ccccc2)n1C` the Potency was inconclusive: 0.0046 µM [activator, full curve, poor fit]. For `Cc1cccc(OCCCn2ccnc2)c1`, the “activity change, negative = inhibition” value was inactive: 8.98%. With `Cc1ccccc1-c1nn2c(-c3ccccc3)nnc2s1` the Potency was inconclusive: 29.1 µM [inhibitor, single point]. In the case of `COc1ccc(C(=O)/C=C2/Sc3cc4c(cc3N2C)OCO4)cc1`, the Potency is reported as inconclusive: 4.11 µM [activator, full curve, poor fit]. For `CCCc1cc(=O)[nH]c(Nc2ccc(N3CCCCC3)cc2)n1`, the Potency was inconclusive: 8.2 µM [inhibitor, partial curve]. In the case of `COc1ccc(NS(=O)(=O)c2cccc(C(=O)NCCc3ccc(S(N)(=O)=O)cc3)c2)cc1`, the Potency is reported as inconclusive: 3.16 µM [inhibitor, single point]. With `CC1=C/C(=N\OS(=O)(=O)c2ccccc2)C(C(C)C)=CC1=O` the Potency was inconclusive: 29.1 µM [inhibitor, single point]. With `CN(Cc1ccccc1)C(=O)N1CCOCC1` the “activity change, negative = inhibition” value was inactive: -1.23%. With `C=C(C)C1CC=C(C)/C(=N/Nc2ccccc2[N+](=O)[O-])C1` (stereo not given) the Potency was inconclusive: 16.4 µM [activator, single point]. With `Cc1ccc(S(=O)(=O)/N=C(/Sc2ccccc2C(=O)O)c2ccccc2)cc1` the “activity change, negative = inhibition” value was inactive: 0%. With `O=C(Nn1c(O)c(C=C2N=c3ccccc3=N2)sc1=S)c1ccccc1` the “activity change, negative = inhibition” value was inactive: 0%. For `CCOc1cc(/C=N/O)cc(Br)c1OCc1ccc(Cl)cc1`, the Potency was inconclusive: 29.1 µM [inhibitor, single point].
